In patent US10385041B2, “Terpene derivative-based PAR1 inhibitor, preparation method thereof, and use in treatment of thrombotic diseases” (SHANDONG UNIVERSITY, priority 2015, dated 2019):
At least one compound was matched to its structure with a doubt left. Some results were stated once for a whole list of compounds, not compound by compound.

Target: T1, PAR1 (Homo sapiens, UniProt P25116)
T1 sequence (P25116 22-425): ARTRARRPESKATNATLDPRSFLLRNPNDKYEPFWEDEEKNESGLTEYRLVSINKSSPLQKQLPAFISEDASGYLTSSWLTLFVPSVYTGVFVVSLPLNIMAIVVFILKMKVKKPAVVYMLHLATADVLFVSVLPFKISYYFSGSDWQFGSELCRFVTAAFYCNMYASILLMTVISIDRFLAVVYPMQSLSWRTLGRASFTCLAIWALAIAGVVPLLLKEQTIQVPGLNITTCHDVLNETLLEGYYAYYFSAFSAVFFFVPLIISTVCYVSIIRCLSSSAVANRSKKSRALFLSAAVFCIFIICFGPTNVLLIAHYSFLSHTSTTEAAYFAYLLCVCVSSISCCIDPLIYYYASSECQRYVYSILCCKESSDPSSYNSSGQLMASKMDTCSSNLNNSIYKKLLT
Assay: Calcium ion influx experiment (FLIPR), PAR1 inhibition activity, HEK293-Ga15-PAR1 cell strain, agonist haTRAP
Type: cell-based
Conditions: HEK293-Ga15-PAR1 cells; for IC50: calcium influx, agonist haTRAP 3 μM, 4-PL fit; for Slope: slope of 4-PL dosage-effect curve, haTRAP 3 μM
Experimental: Embodiment 6: Determination of Biological Activity (PAR1 Inhibition Activity) of the Compound
An HEK293-Ga15-PAR1 cell strain (HD Biosciences stable cell strain) was quickly taken out of a liquid nitrogen tank, and shaken continuously in a 37° C. water bath until it was completely melted. A cell suspension was quickly added into a pre-heated culture medium (90% DMEM+10% FBS+1× Pen/Strep), placed in a centrifuge and centrifuged at 1000 rpm for 10 minutes. A centrifugal tube was taken out, the supernatant was discarded, and the fresh pre-heated culture medium was added into the centrifugal tube, cells were resuspended, and the cell suspension was added into a culture dish and cultured at 37° C. with 5% of CO2.
When the cells reached 80-90% of the culture dish, the cells were gently washed with 0.05% of trypsin-EDTA, part of digestive juice was removed, then the cells were incubated for 2-3 min, the digestion was terminated with the new culture medium, the cells were gently blew with a gun head, and the cells were resuspended. In general, the passage was performed according to 1:4 to 1:8 every 2 to 3 days.
On the day before the experiment, 1× Matrigel (Brand: BD, Cat #: 356230) was added into a clean 384-well cell plate, incubated at 37° C. for 30 minutes, and then inverted and centrifuged at 500 rpm for 30 seconds to remove the coating solution.
The cell precipitate was digested and collected, resuspended in the culture medium to 3×10^5 cells/mL, added into the coated cell plate according to 50 μL per well and then incubated at 37° C. with 5% of CO2 overnight.
On the day of the experiment, the fresh experimental buffer solution and 0.5× Calcium 4 (Brand: Molecular Devices, Cat #: R8141) loading buffer solution were prepared.
The 30 mM DMSO stock solution was first diluted with DMSO to 10 mM, and then diluted 4 times from 10 mM for a total of 10 concentrations. Ten DMSO concentration gradients of the compound were added into the experimental buffer solution at a ratio of 1:20 to prepare a working solution of the compound (5 times the final reaction concentration). […]
The agonist was transferred from the 384-well compound plate (FLIPR) to the cell plate at 5 μL/well according to the program set by FLIPR, and the fluorescent signals in each well of the cell plate were simultaneously read.
The inhibition rate (%) of the compound in each well on the cell plate was calculated according to the fluorescence signal values of the positive control and the negative control on each cell plate. […] The inhibition rates and the corresponding concentrations of the compounds obtained by calculation were introduced into the relevant software for graphing, and the IC50 values of the compounds were calculated according to the 4-PL dosage-effect formula. […]

SMILES | IC50 [µM] | Slope
C[C@]1(CO)[C@H]2CCC(CO)[C@@H](CCc3ccc(-c4cccc(F)c4)cn3)[C@]2(C)CC[C@H]1O (stereo partly shown) [Compound I-3] | 0.66 to 19 | 2.09
C[C@]1(CO)[C@H]2CCC(CO)[C@@H](CCc3ccc(-c4cccc(C(F)(F)F)c4)cn3)[C@]2(C)CC[C@H]1O (stereo partly shown) [Compound I-4] | 0.66 to 19 | 5.00
